These are yes or no findings as the source states them, for the method shown. In cells and extracts the contact can be indirect. Some binding calls cover weakened binding; strength is not graded here.
Assays:
Test in all cases: proximity ligation; Duolink (anti-rabbit plus, anti-mouse minus) on SV40-transformed H9c2 cells fixed with 4% paraformaldehyde and permeabilised with 0.01% Triton X-100; endogenous proteins detected by primary antibodies; signal if the proteins are at a distance <40 nm; confocal imaging
[1] = biological target: cyclophilin F (CypF) (rat (endogenous in SV40-transformed H9c2)) (UniProt P29117)
[2] = biological target: glucose-regulated protein 75 (GRP75) (rat (endogenous in SV40-transformed H9c2)) (UniProt P48721)
[3] = biological target: T1, genes associated with retinoid-IFN-induced mortality-19 (GRIM19) (rat (endogenous in SV40-transformed H9c2)) (UniProt F1LZC5)
T1 sequence: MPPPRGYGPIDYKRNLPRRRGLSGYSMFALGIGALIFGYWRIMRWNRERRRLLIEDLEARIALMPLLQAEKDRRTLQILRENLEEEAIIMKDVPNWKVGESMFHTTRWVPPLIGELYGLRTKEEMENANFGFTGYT

Amino acid sequences for entries named in this document (tags omitted). Residues count along the entry.
UniProt P29117, residues 30-206: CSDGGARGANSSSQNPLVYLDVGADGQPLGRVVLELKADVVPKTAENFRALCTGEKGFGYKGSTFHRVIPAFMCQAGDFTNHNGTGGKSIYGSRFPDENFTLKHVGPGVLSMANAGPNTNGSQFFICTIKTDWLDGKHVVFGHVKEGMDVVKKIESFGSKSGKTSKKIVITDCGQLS
UniProt P48721, residues 47-679: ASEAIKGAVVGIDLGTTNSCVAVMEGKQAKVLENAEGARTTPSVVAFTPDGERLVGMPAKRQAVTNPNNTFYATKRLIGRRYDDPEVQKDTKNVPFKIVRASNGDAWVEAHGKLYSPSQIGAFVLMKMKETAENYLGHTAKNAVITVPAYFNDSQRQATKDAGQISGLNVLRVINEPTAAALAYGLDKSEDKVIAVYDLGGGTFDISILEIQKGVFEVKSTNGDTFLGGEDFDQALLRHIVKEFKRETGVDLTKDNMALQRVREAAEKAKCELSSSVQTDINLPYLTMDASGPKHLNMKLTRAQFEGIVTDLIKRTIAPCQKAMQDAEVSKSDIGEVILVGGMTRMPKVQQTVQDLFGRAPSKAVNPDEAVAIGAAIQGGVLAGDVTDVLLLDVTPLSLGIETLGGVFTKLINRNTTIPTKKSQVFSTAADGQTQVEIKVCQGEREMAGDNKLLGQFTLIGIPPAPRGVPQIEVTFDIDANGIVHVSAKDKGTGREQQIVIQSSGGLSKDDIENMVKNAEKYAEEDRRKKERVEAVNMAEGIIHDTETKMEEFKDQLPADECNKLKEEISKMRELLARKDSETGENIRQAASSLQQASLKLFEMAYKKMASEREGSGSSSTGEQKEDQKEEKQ
UniProt O35433: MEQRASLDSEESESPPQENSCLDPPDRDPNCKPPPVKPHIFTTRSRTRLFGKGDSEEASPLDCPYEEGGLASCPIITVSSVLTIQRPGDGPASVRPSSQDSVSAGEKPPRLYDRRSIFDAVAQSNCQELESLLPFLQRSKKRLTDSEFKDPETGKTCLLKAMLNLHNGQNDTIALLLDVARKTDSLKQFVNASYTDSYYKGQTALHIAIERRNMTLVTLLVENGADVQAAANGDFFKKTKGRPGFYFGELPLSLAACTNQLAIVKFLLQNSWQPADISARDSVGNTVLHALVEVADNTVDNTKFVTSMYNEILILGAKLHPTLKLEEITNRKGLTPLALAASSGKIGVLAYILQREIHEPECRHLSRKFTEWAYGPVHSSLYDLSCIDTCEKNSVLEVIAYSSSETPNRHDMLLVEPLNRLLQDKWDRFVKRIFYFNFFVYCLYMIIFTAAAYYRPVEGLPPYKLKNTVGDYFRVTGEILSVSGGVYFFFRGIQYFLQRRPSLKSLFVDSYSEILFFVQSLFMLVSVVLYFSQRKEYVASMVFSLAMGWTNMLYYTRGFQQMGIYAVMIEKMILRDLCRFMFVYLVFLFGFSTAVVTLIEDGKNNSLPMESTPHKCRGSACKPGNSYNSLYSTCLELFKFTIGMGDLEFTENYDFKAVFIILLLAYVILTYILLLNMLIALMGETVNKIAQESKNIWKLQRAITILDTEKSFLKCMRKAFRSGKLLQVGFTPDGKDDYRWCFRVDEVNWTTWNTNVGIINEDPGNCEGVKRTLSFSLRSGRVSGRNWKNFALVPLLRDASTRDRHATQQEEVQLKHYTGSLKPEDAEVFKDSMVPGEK

binding [1]: no binding
binding [2]: binds
Substance: transient receptor potential vanilloid 1 (TRPV1) (from UniProt O35433 1-838)
binding [3]: no binding

Source: article PMC10529771
